Drawing on patent US20090170765A1, this text covers binding for one molecule.

Chains of the proteins cited; added tags and fusions are not shown.
UniProt Q14974: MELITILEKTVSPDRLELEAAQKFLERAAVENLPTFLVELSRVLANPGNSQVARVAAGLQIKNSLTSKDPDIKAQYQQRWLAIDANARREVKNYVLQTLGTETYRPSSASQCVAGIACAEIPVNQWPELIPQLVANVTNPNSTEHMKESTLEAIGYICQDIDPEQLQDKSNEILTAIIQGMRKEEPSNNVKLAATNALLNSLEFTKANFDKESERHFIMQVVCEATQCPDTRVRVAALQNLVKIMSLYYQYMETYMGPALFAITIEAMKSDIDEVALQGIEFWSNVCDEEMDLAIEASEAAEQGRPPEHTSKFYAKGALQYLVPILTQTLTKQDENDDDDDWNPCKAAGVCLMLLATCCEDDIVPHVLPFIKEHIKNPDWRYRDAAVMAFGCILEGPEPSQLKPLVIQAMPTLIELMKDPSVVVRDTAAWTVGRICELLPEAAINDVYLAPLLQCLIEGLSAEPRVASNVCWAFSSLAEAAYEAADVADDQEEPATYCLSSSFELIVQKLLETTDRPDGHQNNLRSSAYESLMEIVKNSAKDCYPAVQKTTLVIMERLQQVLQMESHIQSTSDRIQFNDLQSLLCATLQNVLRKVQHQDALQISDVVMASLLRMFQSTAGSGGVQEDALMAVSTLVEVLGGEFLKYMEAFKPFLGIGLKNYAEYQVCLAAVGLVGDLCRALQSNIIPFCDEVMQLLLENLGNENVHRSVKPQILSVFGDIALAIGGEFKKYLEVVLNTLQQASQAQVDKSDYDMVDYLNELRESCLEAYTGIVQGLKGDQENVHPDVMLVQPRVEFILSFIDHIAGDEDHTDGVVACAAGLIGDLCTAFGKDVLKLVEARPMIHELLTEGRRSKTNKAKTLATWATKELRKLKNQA

These are yes or no findings as the source states them, for the method shown. Some results given as binding are weak or reduced against the parent protein; the word gives no strength.

For assay [1], the target named is importin β1 (UniProt Q14974). The experiment in a line: peptide competition assay, peptide added to the medium.
The target in assay [2] is importin β1 (UniProt Q14974). The assay is described as follows: peptide competition in neonatal rat cardiomyocytes stimulated with Ang II.

As to AAVALLPAVLLALLAKQECKIKYSERV, the binding result in assay [1] and in assay [2] was “binds” each time.
